Results on 1 substance are retold here after article PMC9664729.

The chains behind the UniProt entries cited, without tags or fusion partners.
UniProt P19474: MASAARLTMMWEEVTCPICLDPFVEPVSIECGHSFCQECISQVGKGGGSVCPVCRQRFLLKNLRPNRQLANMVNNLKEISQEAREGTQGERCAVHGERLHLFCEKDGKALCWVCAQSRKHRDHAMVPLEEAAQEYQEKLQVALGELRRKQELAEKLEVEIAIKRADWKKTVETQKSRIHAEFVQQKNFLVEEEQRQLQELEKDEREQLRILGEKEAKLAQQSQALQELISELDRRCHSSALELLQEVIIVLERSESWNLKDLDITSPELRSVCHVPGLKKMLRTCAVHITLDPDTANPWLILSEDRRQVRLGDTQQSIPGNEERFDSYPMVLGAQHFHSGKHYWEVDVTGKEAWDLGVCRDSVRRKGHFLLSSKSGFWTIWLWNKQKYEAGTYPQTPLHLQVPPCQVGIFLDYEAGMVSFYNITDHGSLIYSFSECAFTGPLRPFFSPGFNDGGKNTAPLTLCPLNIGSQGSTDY

Results are given in words; binding and its absence hold for the method and conditions named. In cells and extracts the contact can be indirect. A yes stands for co-enrichment or nearness to the bait. Other partners may have been found. Tags and fused reporters may be left off the sequences shown.

This experiment has as its target T1, Elongin A (ELOA), Flag-tagged (UniProt Q14241).
T1 sequence: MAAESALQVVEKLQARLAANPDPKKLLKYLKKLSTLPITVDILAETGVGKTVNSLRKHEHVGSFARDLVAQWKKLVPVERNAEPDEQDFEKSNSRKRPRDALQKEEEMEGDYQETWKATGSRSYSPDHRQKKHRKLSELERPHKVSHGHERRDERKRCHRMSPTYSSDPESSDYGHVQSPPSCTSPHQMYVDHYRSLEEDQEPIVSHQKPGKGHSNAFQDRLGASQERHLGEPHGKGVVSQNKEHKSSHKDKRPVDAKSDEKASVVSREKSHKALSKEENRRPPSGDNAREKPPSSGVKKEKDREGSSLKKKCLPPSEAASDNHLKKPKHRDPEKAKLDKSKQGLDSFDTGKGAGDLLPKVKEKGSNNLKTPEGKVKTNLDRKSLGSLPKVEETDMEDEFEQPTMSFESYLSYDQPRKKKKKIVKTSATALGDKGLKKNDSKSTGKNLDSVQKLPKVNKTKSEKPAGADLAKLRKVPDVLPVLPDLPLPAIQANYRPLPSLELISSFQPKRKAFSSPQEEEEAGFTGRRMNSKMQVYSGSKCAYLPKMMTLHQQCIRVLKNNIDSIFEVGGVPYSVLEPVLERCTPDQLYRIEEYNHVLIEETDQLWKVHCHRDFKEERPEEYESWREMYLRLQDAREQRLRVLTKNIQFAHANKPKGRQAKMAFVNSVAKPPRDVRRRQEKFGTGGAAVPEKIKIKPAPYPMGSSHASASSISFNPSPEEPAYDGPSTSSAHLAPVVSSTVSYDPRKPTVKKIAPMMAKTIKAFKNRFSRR
In words: affinity purification with mass spectrometry; ELOA-Flag immunoprecipitation, SDS-PAGE with silver staining, mass spectrometry; screen for E3 ligases.

In the case of “tripartite motif containing 21 (Trim21), endogenous (from UniProt P19474 1-475)”, the binding result is on record as “binds”.
